The target of the assay is human E-cadherin fragment containing domains EC1-EC2 (human) (UniProt P12830). Description: X-ray crystal structure of the complex.

Sequences of proteins named here, by UniProt entry; tags and fusion partners are left off. Residues count along the entry.
UniProt P12830, residues 155-367: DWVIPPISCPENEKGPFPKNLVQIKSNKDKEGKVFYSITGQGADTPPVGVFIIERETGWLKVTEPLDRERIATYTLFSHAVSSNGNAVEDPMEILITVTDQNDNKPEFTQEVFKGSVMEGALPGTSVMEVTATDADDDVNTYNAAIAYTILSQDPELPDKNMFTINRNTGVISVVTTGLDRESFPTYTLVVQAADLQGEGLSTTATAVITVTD

No constants are given. Whether binding was seen depends on the method and setting. Some results given as binding are weak or reduced against the parent protein; the word gives no strength.

B1: Fab from activating mAb 66E8 (Fab, V domains shown)
VH: EVQLQQSGPELVKPGASVKISCKASGYSFTGYFMNWVKQSHGKSLEWIGRINPYNGDTFYKQRFKGKATLTVDKSSSTVHMDLLSLTSEDSAVYYCGRGNYYFDYWGQGTTLTVSS
VL: DVQITQSPSYLAASPGETITINCRTSKNISKYLAWYQEKPGKTNKLLIYSGYTLQSGIPSRFSGSGSGTDFTLTISSLEPEDFAMYYCQQHNEYPYTFGGGTKLEIK
On to B1, for which the binding result was “binds”.

Source of the values: patent publication US20220298255A1 (SEATTLE CHILDREN S HOSPITAL D B A SEATTLE CHILDREN S …, published 2022).
